Measurements reported in PubChem BioAssay AID504791 (Drosophila RNAi Screening Center, 2011).
The screen tested about 23,000 reagents; below is a random part of those that have a named target and a result. In the full data, 199 (0.86%) are marked active. 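Plate-scaled ratios behind the calls are not deposited; printed light signals are raw; many rows marked increased or decreased are still called inactive.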 The numbers tell different reagents against one gene apart. Names joined by + are all predicted targets of the reagent. No sequences are given here. Not given: the direction of the score.

Aim: 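Factors in Argonaute-based small RNA production and activity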 (primary screen)
System: Drosophila S2-derived reporter cells
Reagents: long dsRNA against Drosophila genes, about 150-250 ng dsRNA per well (siRNA assay); about 80-120 ng (miRNA assay)
Duration: about 5 days (siRNA assay); about 4 days (miRNA assay)
Challenge: copper sulfate induction of reporters: 25 µM (siRNA assay); 200 mM stated (miRNA assay), 1-2 days before reading
Measured: 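Dual luciferase assay: Renilla to firefly signal ratio in each well, scaled to the mean ratio of its plate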
Units: stable assay Renilla, run 1 in luminescence; stable assay firefly, run 1 in luminescence
Rule for the call: 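First-pass picks had plate-scaled ratios over 1.5 for the siRNA assay, over 1.6 for the miRNA assay, or under 0.6; two distinct dsRNAs had to score alike on retest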

With CG3634, how do the results read?
stable assay Renilla, run 1: 6547; stable assay firefly, run 1: 4.46e5; activity call: inactive

Which result is listed for CG1631?
stable assay Renilla, run 1: 5802; stable assay firefly, run 1: 4.74e5; activity call: inactive

Which result is listed for Rab4 + CG42239?
stable assay Renilla, run 1: 6308; stable assay firefly, run 1: 4.21e5; activity call: inactive

What is on record for CG11155 #1?
stable assay Renilla, run 1: 5115; stable assay firefly, run 1: 3.11e5; activity call: inactive

For CG11155 #2, what was measured?
stable assay Renilla, run 1: 7170; stable assay firefly, run 1: 3.09e5; activity call: inactive

How did the screen score Gp210 #1?
stable assay Renilla, run 1: 6915; stable assay firefly, run 1: 4.55e5; activity call: inactive

With Gp210 #2, how do the results read?
stable assay Renilla, run 1: 16455; stable assay firefly, run 1: 1.07e6; activity call: inactive

What is on record for Ptp10D?
stable assay Renilla, run 1: 4524; stable assay firefly, run 1: 3.78e5; activity call: inactive

What did the screen give for CG10324?
stable assay Renilla, run 1: 7535; stable assay firefly, run 1: 3.76e5; activity call: inactive

For CG34289, what does the deposit list?
stable assay Renilla, run 1: 6674; stable assay firefly, run 1: 5.58e5; activity call: inactive

For CG31957, how do the results read?
stable assay Renilla, run 1: 4344; stable assay firefly, run 1: 2.87e5; activity call: inactive

What is on record for CCAP-R #1?
stable assay Renilla, run 1: 7248; stable assay firefly, run 1: 2.74e5; activity call: inactive

Which result is listed for CCAP-R #2?
stable assay Renilla, run 1: 6656; stable assay firefly, run 1: 3.16e5; activity call: inactive

For scrt #1, how do the results read?
stable assay Renilla, run 1: 5487; stable assay firefly, run 1: 2.17e5; activity call: inactive

With scrt #2, how do the results read?
stable assay Renilla, run 1: 2655; stable assay firefly, run 1: 2.68e5; activity call: inactive

Part of the list above, reformatted:
gene | dsRNA no. | stable siRNA reporter change | miRNA reporter change | stable assay Renilla, run 1 | stable assay firefly, run 1 | activity call
CG11155 | 1 | – | – | 5115 | 3.11e5 | inactive
CG11155 | 2 | – | – | 7170 | 3.09e5 | inactive
Gp210 | 1 | – | – | 6915 | 4.55e5 | inactive
Gp210 | 2 | – | – | 16455 | 1.07e6 | inactive

The list goes on.
For endos, what was measured?
stable siRNA reporter change: reporter ratio lowered past the hit cutoff; stable assay Renilla, run 1: 11499; stable assay firefly, run 1: 7.26e5; activity call: inactive

With CG6665, how do the results read?
stable assay Renilla, run 1: 10289; stable assay firefly, run 1: 3.39e5; activity call: inactive

What did the screen give for Muc12Ea?
stable assay Renilla, run 1: 6035; stable assay firefly, run 1: 5.51e5; activity call: inactive

Which result is listed for Zip99C?
stable assay Renilla, run 1: 7499; stable assay firefly, run 1: 3.74e5; activity call: inactive

For CG14913, what does the deposit list?
stable assay Renilla, run 1: 8045; stable assay firefly, run 1: 3.97e5; activity call: inactive

How did the screen score CG31515?
stable assay Renilla, run 1: 4475; stable assay firefly, run 1: 4.27e5; activity call: inactive

With CG13088, what was measured?
stable assay Renilla, run 1: 8405; stable assay firefly, run 1: 4.10e5; activity call: inactive

What did the screen give for CG18294 + 825-Oak + CG32214 + 2 more?
stable assay Renilla, run 1: 9131; stable assay firefly, run 1: 6.08e5; activity call: inactive

How did the screen score plx #1?
stable assay Renilla, run 1: 6995; stable assay firefly, run 1: 3.31e5; activity call: inactive

What is on record for plx #2?
miRNA reporter change: reporter ratio raised past the hit cutoff; stable assay Renilla, run 1: 3123; stable assay firefly, run 1: 2.98e5; activity call: inactive

How did the screen score plx #3?
stable assay Renilla, run 1: 3187; stable assay firefly, run 1: 3.38e5; activity call: inactive

With CR18228, what does the deposit list?
stable assay Renilla, run 1: 8490; stable assay firefly, run 1: 6.38e5; activity call: inactive

For GstO1, how do the results read?
stable assay Renilla, run 1: 7650; stable assay firefly, run 1: 5.49e5; activity call: inactive
